Results reported in patent US5496831.
For at least one entry, the source does not settle the construct or the ends of the probe. Where cells or extracts were used, other partners may take part. For part of these data: Negatives hold for the conditions tested.

Key:
[1] = test system: IRP-A complex (insulin-responsive, liver nuclear extract) (Rattus norvegicus); assay: competition with a labelled probe; details: protein in an extract
[2] = test system: E2F complex (refed-induced, liver nuclear extract) (Rattus norvegicus); assay: competition with a labelled probe; details: protein in an extract, protein details: fasted-refed rat liver nuclear extract
[3] = test system: E2F complex (refed-induced, liver nuclear extract) (Rattus norvegicus); assay: EMSA; details: refed-induced complex of similar mobility to IRP-A on labelled E2 DNA; protein in an extract; protein details: fasted-refed rat liver nuclear extract; label: 32P when used as probe

“TAGTTTTCGCGCTTAAATTTGA (double strand) [DRTF wild-type (E2A promoter site)]”: binds ([1]; DRTF site completely competes IRP-A from IRE-A); binds ([2]; DRTF site competes complex from labelled E2).

“ATTTAAGTTTCGCGCCCTTTCTCAA (double strand) [E2 (cognate E2F site) wild-type]”: binds [3]; binds ([1]; completely eliminates IRP-A binding to IRE-A, label: 32P when used as probe).

“ATTTAAGTTTCGATCCCTTTCTCAA (double strand) [E2 mutant (GC to TA)]”: no binding ([1]; mutant E2 fails to compete, variant of E2 (cognate E2F site) wild-type); no binding ([2]; mutant E2 does not compete, variant of E2 (cognate E2F site) wild-type).
